Literature values, collected in patent US20220071208A1, “Pest Repellent Composition” (Kao Corporation, priority 2018, published 2022).
Some results were stated once for a whole list of compounds, not compound by compound.

System: pest
Conditions: content in a repellent product

CCC(C)OC(=O)N1CCCCC1CCO (stereo not shown) [Icaridin, 1-methylpropyl-2-(2-hydroxyethyl)-1-piperidine carboxylate]
effective amount of the existing pest repellent: ≥ 4 % by mass
